We go through 50 compounds from publication PMC12040169 (PLOS Biology, 2025).

Structures are written as SMILES. This is one part of the list.

The test system of this test is T1, CTL2-GFP (C. trachomatis L2/434/Bu, GFP-expressing).
T1 construct: L2/434/Bu, GFP-expressing
On the set-up: species or system HeLa; Intracellular C. trachomatis growth in HeLa cells, bulk GFP fluorescence relative to DMSO. The conditions noted are these: bulk GFP, single well; 28.5 h, 10 µM; inhibitor.
In the case of `COc1ccc(C2CCN(CC(=O)NCc3ccco3)CC2)cc1` [CBK283562], the “% of control remaining” value is given as 110.954%.

In the case of `O=S(=O)(Nc1cccc2cc[nH]c12)c1cc(Cl)ccc1Cl` [CBK153581], the “% of control remaining” value worked out at 82.7351%.

`COc1ccc(S(=O)(=O)Nc2ccc(C(=O)O)c(O)c2)cc1[N+](=O)[O-]` [CBK299771]: the “% of control remaining” value was 187.982%.

As to `COc1nccnc1N1CCN(CCc2c[nH]c3ccccc23)CC1` [CBK084231], the “% of control remaining” value is listed as 120.928%.

As for `COc1cc(/C=N/c2ccc(O)c(-c3nc4ccccc4s3)c2)ccc1OC(=O)c1ccc(Cl)cc1Cl` [CBK261243], the “% of control remaining” value is on record as 119.772%.

On to `COc1ccccc1NC(=S)NCCc1ccccn1` [CBK265358], for which the “% of control remaining” value amounted to 100%.

Take `COC1CCCC(C(=O)N2CCC(c3onc4c3CCC4)CC2)C1` (centres unmarked) [CBK285519]: the “% of control remaining” value is reported as 111.207%.

For `O=C(CN1C(=O)c2ccc([N+](=O)[O-])cc2C1=O)Nc1cccc2c1C(=O)N(c1ccccc1)C2=O` [CBK265576], the “% of control remaining” value stood at 108.182%.

In the case of `CCCCCC(=O)Nc1ccc(S(=O)(=O)Nc2nnc(CC)s2)cc1` [CBK045478], the “% of control remaining” value is reported as 27.8375%.

With `CN(C)C1(c2nnnn2CCOC(=O)Nc2ccc(Cl)cc2)CCCCC1` [CBK266093], the “% of control remaining” value is given as 93.4794%.

Consider `COc1cc(NC(=O)CC2SC(NC3CCCCC3)=NC2=O)c(OC)cc1Cl` (centres unmarked) [CBK059497], for which the “% of control remaining” value turned out to be 107.194%.

Consider `CCNc1nc(-c2ccsc2)cn2ccnc12` [CBK037375], for which the “% of control remaining” value was 112.274%.

For the compound `O=C(c1ccc([N+](=O)[O-])cc1)n1nc(-c2cccnc2)nc1NCc1ccc(F)cc1` [CBK268962], the “% of control remaining” value is on record as 146.047%.

For `O=C(c1ccc2ncccc2c1)N1CCN(c2ncccn2)CC1` [CBK144503], the “% of control remaining” value is 127.546%.

Turning to `O=C(c1cc2c(F)cccc2[nH]1)N1CCC(Oc2cccnc2)CC1` [CBK281468], the “% of control remaining” value is given as 83.2683%.

On to `Cc1ccc(-c2nc(Nc3ccc(Br)cc3)sc2CC(=O)O)cc1` [CBK264251], for which the “% of control remaining” value turned out to be 119.719%.

`Cc1ccccc1-n1ccn(S(=O)(=O)C(C)C)c1=O` [CBK106566]: the “% of control remaining” value is 106.616%.

Take `CN(C)C(=O)c1cc2cc(NC(=O)CC3COCCN3)ccc2s1` (centres unmarked) [CBK306710]: the “% of control remaining” value is listed as 115.982%.

Regarding `CCCn1nc(C)cc1NC(=O)c1ncoc1-c1ccc(F)cc1` [CBK282361], the “% of control remaining” value is reported as 138.106%.

In the case of `O=C(O)CCN1CCCC2(CCN(C(=O)Cc3c[nH]c4ccccc34)C2)C1` (centres unmarked) [CBK137138], the “% of control remaining” value came to 113.044%.

Consider `Cc1cc(CNC(=O)N2CCCC(CO)C2)no1` (centres unmarked) [CBK156028], for which the “% of control remaining” value amounted to 96.0918%.

Take `CN(C)c1cccc(-c2ccc(Nc3cccc(NC(=O)c4ccncc4)c3)nc2)c1` [CBK037721]: the “% of control remaining” value came out at 116.091%.

`CC(C)C(=O)NCCn1nc(-c2ccco2)ccc1=O` [CBK283863]: the “% of control remaining” value turned out to be 124.761%.

Consider `Cc1nn(C)cc1-c1cncn1CCCn1ccnc1C(C)C` [CBK281972], for which the “% of control remaining” value is reported as 124.006%.

As for `O=C(COc1cccc([N+](=O)[O-])c1)Nc1cc(C(=O)O)cc(C(=O)O)c1` [CBK263604], the “% of control remaining” value is given as 93.2263%.

`CC(=O)Nc1nc(CN2CCOC(c3ccc(F)cc3)C2)cs1` (centres unmarked) [CBK305591]: the “% of control remaining” value was determined as 126.178%.

Turning to `Cc1nc(C)c(-c2csc(Nc3ncccn3)n2)s1` [CBK263297B], the “% of control remaining” value is 90.9895%.

In the case of `Oc1ccc(CN2CCN(c3ccc(F)cc3)CC2)c2cccnc12` [CBK267985], the “% of control remaining” value is reported as 90.7719%.

As to `CCOC(=O)c1cccc(-c2ccc(OC(F)(F)F)cc2)n1` [CBK149251], the “% of control remaining” value is recorded as 120.07%.

Take `Cc1nnc(SCCn2c(N3CCCCC3)nc3c2c(=O)n(C)c(=O)n3C)s1` [CBK269288]: the “% of control remaining” value was 145.28%.

For the compound `O=[N+]([O-])c1ccc(Sc2nnc(-c3cccs3)n2CC2CCCO2)cn1` (centres unmarked) [CBK297483], the “% of control remaining” value is recorded as 55.056%.

In the case of `O=[N+]([O-])c1ccc(NCCNS(=O)(=O)c2ccccc2)cc1` [CBK261948], the “% of control remaining” value was 141.847%.

With `CC(C(=O)N1c2ccccc2Sc2ccccc21)N1C(=O)c2ccccc2C1=O` (centres unmarked) [CBK018045], the “% of control remaining” value was 89.084%.

Regarding `O=C(Nc1cccnc1)N1CCc2ccccc2C1` [CBK155312], the “% of control remaining” value was 114.256%.

For the compound `Cc1ccccc1-n1nc(-c2ccc(NC(=O)c3ccccc3)cc2)cc1NC(=O)c1ccccc1` [CBK261264], the “% of control remaining” value was 102.836%.

For `CC(C)NS(=O)(=O)c1ccc(NS(=O)(=O)c2cccc(C(=O)O)c2)cc1` [CBK296950], the “% of control remaining” value amounted to 128.994%.

For the compound `CCc1nccn1CCC(=O)Nc1ccc2c(c1)nc(CC)n2CC` [CBK281629], the “% of control remaining” value is given as 152.518%.

For the compound `COc1ccccc1-c1ccc(NC(=O)CCc2ccc3c(c2)n(C)c(=O)n3C)cc1` [CBK286527], the “% of control remaining” value came out at 102.946%.

Consider `Cc1c(C(=O)C2=C(O)C(=O)N(CCCN(C)C)C2c2ccccn2)cnn1-c1ccccc1` (centres unmarked) [CBK266516], for which the “% of control remaining” value is reported as 127.909%.

For `COC(=O)/C=C/c1cccc(-c2cnc(N)c(-c3ccc(O)cc3)n2)c1` [CBK125689], the “% of control remaining” value is recorded as 101.537%.

Consider `Cc1cc(C)cc(NC(=O)c2ccc(CSc3nnc(N)s3)cc2)c1` [CBK266609], for which the “% of control remaining” value came out at 98.3208%.

`O=C(c1cncnc1)N1CCC2(CCN(C(=O)c3cc(F)c(F)cc3F)C2)C1` (centres unmarked) [CBK131405]: the “% of control remaining” value came out at 109.236%.

Take `CN(C)c1nc(-c2cc(C(F)(F)F)cc(C(F)(F)F)c2)ccc1C(=O)NCc1ccco1` [CBK106094]: the “% of control remaining” value came out at 124.889%.

For `COc1ccc(C(C)C)cc1-c1cncc(N2CCN(Cc3ccccn3)CC2)n1` [CBK065792], the “% of control remaining” value came out at 135.139%.

As for `OC(CNCc1cccs1)c1ccccc1` (centres unmarked) [CBK057092], the “% of control remaining” value came out at 121.629%.

As for `COCCN(Cc1cnn(C)c1)C(=O)NCc1nc2c(C)cccc2o1` [CBK307642], the “% of control remaining” value amounted to 146.574%.

For `O=C(O)C1C2C=CC(C2)C1C(=O)NCc1ccncc1` (centres unmarked) [CBK265403], the “% of control remaining” value is recorded as 109.284%.

Consider `Cc1sc2c(C3CCN(C(=O)C4CC4C)CC3)nc(C)n2c1C` (centres unmarked) [CBK285299], for which the “% of control remaining” value turned out to be 76.8325%.

Turning to `COc1ccc(Cl)cc1-c1noc(Cn2nc(C)c(Cl)c2C)n1` [CBK269813], the “% of control remaining” value is on record as 137.203%.

Consider `c1sc(C2CN3CCCC3CO2)nc1C1CCCC1` (centres unmarked) [CBK304814], for which the “% of control remaining” value came to 120.035%.
